Assay results: publication PMC8468827

Sequences of proteins named here, by UniProt entry; tags and fusion partners are left off.
UniProt Q9VQ93: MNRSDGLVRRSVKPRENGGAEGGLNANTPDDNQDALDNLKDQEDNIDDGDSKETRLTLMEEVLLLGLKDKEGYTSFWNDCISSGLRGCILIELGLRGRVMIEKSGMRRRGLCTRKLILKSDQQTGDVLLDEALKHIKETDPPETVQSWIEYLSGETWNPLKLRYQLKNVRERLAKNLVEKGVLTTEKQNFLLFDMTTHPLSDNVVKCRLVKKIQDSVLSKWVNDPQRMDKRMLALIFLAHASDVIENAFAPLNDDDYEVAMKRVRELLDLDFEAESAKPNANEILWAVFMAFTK

B1: Pgant5 (protein, UniProt Q6WV17 1-630)
chain: MTFSTFTRKMRGRMRSNTCRIVLLTSLVWVIFDFVLIARYSDCIGKDGWRCKRSGEYDVELPNAERLVDDNQLVDDNEINTEKSLDGESGGALIMGQGFASGGISMTYPSVVLKKWFLAPSVQEAKGKPGEMGKPVKIPADMKDLMKEKFKENQFNLLASDMISLNRSLTDVRHEGCRRKHYASKLPTTSIVIVFHNEAWTTLLRTVWSVINRSPRALLKEIILVDDASERDFLGKQLEEYVAKLPVKTFVLRTEKRSGLIRARLLGAEHVSGEVITFLDAHCECTEGWLEPLLARIVQNRRTVVCPIIDVISDETFEYITASDSTWGGFNWKLNFRWYRVPSREMARRNNDRTAPLRTPTMAGGLFSIDKDYFYEIGSYDEGMDIWGGENLEMSFRIWQCGGILEIIPCSHVGHVFRDKSPYTFPGGVAKIVLHNAARVAEVWLDEWRDFYYSMSTGARKASAGDVSDRKALRDRLKCKSFRWYLENVYPESLMPLDYYYLGEIRNAETETCLDTMGRKYNEKVGISYCHGLGGNQVFAYTKRQQIMSDDLCLDASSSNGPVNMVRCHNMGGNQEWVYDAEEKWIRHTNTGQCLQRATRDDANTPLLRPCSYGKGQQWLMESKFKWQAH
B2: Pmm2 (protein, UniProt Q9VTZ6 1-254)
chain: MTTAALKRDEILLLFDVDGTLTMPRSVVTPEFEEFFYSRVKPRATIGIVGGSDLEKMFEQLNGRKILNEFDFIFPENGLVQIEGGKEVGKQNIIMHLGEETVKRFINFVLRYLSELDVPIKRGTFIEFRNGMMNVCPIGRQCTREERNMFAEYDIEHKVREKMIKDLKQEFADVDLTYSIGGQISFDVFPHGWDKTYCLRHIEAHYKFKEIHFFGDKTEPGGNDYEIYSDPRTISHRVYTPKDTQRILTEILEL
B3: Pgant7 (protein, UniProt Q8MV48 1-591)
chain: MRVSTIRSGRICRLALCLLVLLPLLYLLANWSDHHKRVQEAYHTRFGGPKFAHQRLEGRPREVPKLVDGLGNFEPKDVKPRSGPGENGEAHSLSPDKKHMSDASEMEYGMNIACSDEISMHRSVRDTRLEECRHWDYPFDLPRTSVIIVFHNEGFSVLMRTVHSVIDRSPTHMLHEIILVDDFSDKENLRSQLDEYVLQFKGLVKVIRNKEREGLIRTRSRGAMEATGEVIVFLDAHCEVNTNWLPPLLAPIYRDRTVMTVPIIDGIDHKNFEYRPVYGTDNHFRGIFEWGMLYKENEVPRREQRRRAHNSEPYRSPTHAGGLFAINREYFLELGAYDPGLLVWGGENFELSFKIWQCGGSIEWVPCSRVGHVYRGFMPYNFGKLASKKKGPLITINYKRVIETWFDDTHKEYFYTREPLARYLDMGDISEQLALKKRLNCKSFQWFMDHIAYDVYDKFPGLPANLHWGELRSVASDGCLDSMGHQPPAIMGLTYCHGGGNNQLVRLNAAGQLGVGERCVEADRQGIKLAVCRLGTVDGPWQYNEHTKHLMHRVHKKCMALHPATQQLSLGHCDVNDSYQQWWFKEIRPRW
B4: phosphatidylinositol 4-phosphatase Sac1 (protein, UniProt Q9W0I6 1-592)
chain: MDSREENAVYDDMNLYIAPQSFIIEPNGGDELLVIGRHDKVTRVQPASGGLVANLRPTRRICGVLGTIHLLSCDYLLVATHRLFVGVLNGAVVWRLAGYDIIPYIPNSFQRKENENYLRLLRQTLDTKFFYFSYRYDLTNSLQRQREVAQSRPEVSGLLQRAEQRFVWNGYVLRQFNCDKMEKFQLPLVLGFVSINQVQINGQTFFWSIITRRSVQRAGTRLFCRGSDEQGHVANFVETEQIVEFNGQLTGFVQTRGSMPFHWHQLPNLRYKPRPVLVPGKDHLAACGLHFKEQIRLYGNNVAVNLVDHKGAEGELEATYARLVREMGNPQVRYESFDFHSECRKMRWDRLNILIDRLAHEQDQFGVYHVFDDGKLVSTQTGVFRTNCIDCLDRTNVVQSMLARRSLTAVLQKLGVLHVGQKVEHASDIFESIFKGVWADNADLVSLQYSGTCALKTDFTRTGKRTKSGAMQDGKNSLMRYYLNNFADGQRQDSIDLFLGKYLVNDNEGGAVPSPLESKHGWRFFTFPSVLLVAVAMFMITMTYPAEFNTENLLFMLFWGAMIAVSATGILHYGVEFVQWPRLFPPISFRDP
B5: Small wing (Sl) (protein, UniProt Q9VXH3 1-1236)
chain: MSCFSAMSAPLLGEMEQTIGMLERGTIVTKLYGKQRRPDRRHLMLIRETRQLLWATVATQTPRTDYEGAIQLREIREIRVGKHSKEFRLFADDCQRFESSKCFVILHGNHFKLKSFSVVALSEIEADNWVRGLRYMVKDTLGAPYPLQIDRWLRREYYQIENVNTHSAKATEQSPAQVTIKDFKLFLAGVSCKMTTGKFMEHFTEDVRRKHDLKFDDFSRLYQKLLLPNGFASVLSGSGVANFPYSEDQQVVRPAELKQFLETEQRDVSASEISSAAIASFIRDFVQDVERDVQEPYLTFPEFVDFLFSKQNDLWNSKYDQVFMDMNLPLSSYWIASSHNTYLTGDQFSSESSCEAYARALRMGCRCIELDCWNGPDNLPYIFHGHTITSKIKFMDVIKTIKDHAFTSSEYPVILSIEQNCSLEQQRNMAQALIEVFGDMLLTQPCDRNEQHLPSPYQLRRKIILKHKKLPQFDDIANGISSTGSLGHRSSLGGAGGGAHGENDGENVRKVFKEGLLYFKDPVDKSWNLYQFVLTHQELIYSSEINESRNGNSEDDDFGLSSSCSLNSNMQQKQKDTSANDELHFGENWFHGKLEGGRKEADDLLKKYKHFGDGTFLVRESATFVGDYSLSFWRRNRPNHCRIKLKHENGSIKYYLVENFVFDSLYSLIVYYRKNMLRSSEFSIILKEPVPQPKKHEDQEWFHPNTTKEQAEQGLYRLEIGSFLVRPSVQSINAFVISFTINRKIKHCRIMQEGRLYGIDTMNFESLVSLINYYTRNPLYRNVKLSHPVSQELLRQALAEAAQGDHSGGHDDNGASNYMGSNLEENVTCKALYSYKANKPDELSFPKHAIITNVQRDNSMWWIGDYGGMIKKHLPANYVKVIDSTTEDYNSLNEEGTDGRTDSIEIFGAVASLFESNDPGIIFKLQIQTPTMQNPFVIGFDNQETAYEWIKAIQEAALIASQLASERRKKERTARVAKEMSDLIIYFRSVPFREHSWIFQEMSSFPETKAEKQFFQQNTQLFLSYHRNQISRVYPKGQRLDSSNFNPMPFWNVGSQMIALNYQTGDKAMQLNQAKFRNNGQCGYILKPSFMKSDSFNPNNPLCDGLSEVKVSIRLIAARHLFRGGKSNNPQIVVELIGASFDTGVKYRTKVNENGFNPVWNESCEFNVRNPQFAILRFEVQDEDMFAETHFIAQACYPLTCIRQGYRSVILRNKFSEELELSSLLINIKIANVTAP
B6: very-long-chain enoyl-CoA reductase Sc2 (protein, UniProt Q9VZL3 1-302)
chain: MELEILNAKNSKPYGKVKVPSGATPIGDLRALIHKTLKQTPHANRQSLRLELKGKSLKDTDTLESLSLRSGDKIYVKDLGPQIGWKTVFLAEYAGPLIVYLIFYFRPELVYGKAASLPISLTTHIAAGCYTVHYVKRLLETIFVHRFSHATMPLRNLFKNCTYYWGFTAYVSYHVNHPQFTSPCMCTVWGALGAFALCELGNFSVHIALRNLRPPGTKVRKIPVADGNPLTKLFDLVSCPNYTYEIGAWVSFSVLTSCLAAYLFAFAGAFQMTIWALAKHRNYKKEFKDYPRQRRSIFPFVL
B7: Sphingosine-1-phosphate lyase Sply (protein, UniProt Q9V7Y2 1-545)
chain: MRPFSGSDCLKPVTEGINRAFGAKEPWQVATITATTVLGGVWLWTVICQDENLYIRGKRQFFKFAKKIPAVRRQVETELAKAKNDFETEIKKSNAHLTYSETLPEKGLSKEEILRLVDEHLKTGHYNWRDGRVSGAVYGYKPDLVELVTEVYGKASYTNPLHADLFPGVCKMEAEVVRMACNLFHGNSASCGTMTTGGTESIVMAMKAYRDFAREYKGITRPNIVVPKTVHAAFDKGGQYFNIHVRSVDVDPETYEVDIKKFKRAINRNTILLVGSAPNFPYGTIDDIEAIAALGVKYDIPVHVDACLGSFVVALVRNAGYKLRPFDFEVKGVTSISADTHKYGFAPKGSSVILYSDKKYKDHQFTVTTDWPGGVYGSPTVNGSRAGGIIAACWATMMSFGYDGYLEATKRIVDTARYIERGVRDIDGIFIFGKPATSVIALGSNVFDIFRLSDSLCKLGWNLNALQFPSGIHLCVTDMHTQPGVADKFIADVRSCTAEIMKDPGQPVVGKMALYGMAQSIPDRSVIGEVTRLFLHSMYYTPSQK
B8: Bond (protein, UniProt Q9VCY7 1-322)
chain: MTNYIKIVEERISGLSKGVDETVDSWFLMSSPMPVVAVVLVYLAFVLKIGPEYMKNRKPMDLKRIMVFYNAFQVLYSIWMCRTSIQESNVMASIFSKKCEINRTREQNLTLYSGAWFYFFSKIIDLLDTTFFVLRKKDNQVSFLHVYHHTITVLFSWGYLKYAPGEQGVIIGILNSGVHIIMYFYYMVAAMGPQYQKYLWWKKYMTSIQLIQFVLILGYMLTVGAKGCNMPKTLTFFFVGNTVIFLYLFGNFYRKTYKKAKSVDGGSRTTGSSLAQSALRAAGGMGCMPQTMNAGKHLLQNGQVGKAYIDLNNNSVKPMKLE
B9: CG8230 (protein, UniProt Q7KNA0 1-699)
chain: MGINVSRTADLGSNQWLQRFVGRQHIAHDDEAFWNGLLNYNIVLPENSQDQLNLDSRLEALCQSFIGNNLKTGNFGSLVTVFLEKTSELLSLSDQESNMHVWQTFNALFIIRSLVKYINETGSEFQLLQHFEAMPNAELLQAALEQQQQTPAESATIAMEATEQSAAAAVPVIVDGSKFETFIDALVNLIVVIPVKEFTYHLHLEAVNMLITLLSVHLFAQQPTDKSIVFRTVFKCQHANVLMSALLHFVARIVEVPHTMFGSSSAGSFVFGIAESLLSIFTFRKQPDILKAGQAAGGGELSQRFRTHYPLANQSLLLILILTNHCTAQDNAYRTSLFSCADSKDSPKQGAVSFQIDFSAVYETLCTIVTIDQATLLLYLLLHRNERFYRFVMQQQDLEQLVIPILQTLYNAPDSNSHHIYMSLIVLLILSEDEGFNKNVHTIMLKNITWYTERTISEISLGGILILIVIRTIQYNMLKMRDKYLHTNCLAALANMSGHFRALHPYVAQRLVSLFETLARKHTRLDAQLKEPADSAVFVNVSTTPEDMLQDLSVLEEVLRMVLEILNSCLTNQLVYCPNLVYTLLYKRSVFEGFRSHHAFQDVIQNIDMVVGFFSSRLQRVQEQRGELGVNEVLEVISKGASQWSSDRLRKFPDLKFKYVEEDAPEEFFIPYVWTLVCKYGCVHFSSESIKSVTTDIAC
B10: Protein phosphatase 2A at 29B (Pp2A-29B) (protein, UniProt P36179 1-591)
chain: MAASDKSVDDSLYPIAVLIDELKNEDVQLRLNSIKKLSTIALALGEERTRSELIPFLTETIYDEDEVLLALADQLGNFTSLVGGPEFAMYLIPPLESLATVEETVVRDKAVESLRTVAAEHSAQDLEIHVVPTLQRLVSGDWFTSRTSACGLFSVCYPRVTQPVKAELRANFRKLCQDETPMVRRAAANKLGEFAKVVETEYLKSDLIPNFVQLAQDDQDSVRLLAVEACVSIAQLLPQDDVEHLVLPTLRQCASDSSWRVRYMVAEKFVDLQKAVGPEITRVDLVPAFQYLLKDAEAEVRAAVATKVKDFCANLDKVNQVQIILSSILPYVRDLVSDPNPHVKSALASVIMGLSPMLGAYQTVEQLLPLFLIQLKDECPEVRLNIISNLDCVNDVIGIQQLSQSLLPAIVELAEDSKWRVRLAIIEYMPALAGQLGQEFFDQKLRGLCMGWLNDHVYAIREAATLNMKKLVEQFGAPWAEQAIIPMILVMSRNKNYLHRMTCLFCLNVLAEVCGTDITTKLLLPTVLLLAADPVANVRFNVAKTLQKISPFLEASVIDAQVKPTLDKLNTDTDVDVKHFAAQAIAGIAAA

Target: dGOLPH3-mRFP (Drosophila) (UniProt Q9VQ93)
Assay: affinity purification with mass spectrometry; RFP-trap beads on lysate of 3000 adult testes expressing dGOLPH3-RFP (RFP alone as control); lysis buffer 25 mM Tris-HCl pH 7.4, 150 mM NaCl, 1 mM EDTA, 1% NP-40; washes at 4 °C; nanoLC-MS/MS

Binder	binding
B1	binds
B2	binds
B3	binds
B4	binds
B5	binds
B6	binds
B7	binds
B8	binds
B9	binds
B10	binds

These are yes or no findings as the source states them, for the method shown. In cells and extracts the contact can be indirect. These calls come from enrichment with a bait or labelling near it, and not all partners need be listed.
